Results from PubChem BioAssay AID493014 (National Center for Advancing Translational Sciences (NCATS), 2011).
In all, about 340,000 compounds went through this assay and about 170 (0.05%) were called active. Inconclusive means that the source gave no clear call. Such entries were picked first, then a sample of the others. The call rests on the fitted dose curve; in most records, active means well fitted inhibition curve with a large enough effect in the signal ratio, with a control signal flat (not every such curve was filed as active); inconclusive means small, poorly fitted or top-dose-only effect, or effect the other way, or a change in a side signal; inactive means flat fitted curve, though single readings scatter; the % refers to the signal ratio. Potencies of inconclusive entries are doubtful fits and often do not repeat.

Assay: qHTS Assay to Find Inhibitors of Chronic Active B-Cell Receptor Signaling;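 on activity change, negative = inhibition: plate controls were basal doxycycline-induced cells for no effect and cells given 10 µM MG132 for full effect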
Details: ABC-DLBCL IkBa-CBG/CBR reporter, luminescence ratio (green luciferase fused to IkBa over red control in TMD8 lymphoma cells), 4 h; activity change, negative = inhibition: at 46.1 µM (top of the series)
In short: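 Concentration-response series (up to 46 uM) were applied to TMD8 dual-reporter cells for 4 h at 37C with doxycycline. Green/red ratio, after filter-overlap correction, defined %Activity; red signal alone was normalised to basal cells and zero luminescence.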
Potency means the concentration at half of the fitted maximal effect.

| Compound | Potency | activity change, negative = inhibition |
| --- | --- | --- |
| O=C(N/N=C/c1ccoc1)c1ccccc1O | inconclusive: 31.6 µM [rising, single point] |  |
| O=C(NCCO)c1ccc2nc(-c3ccco3)c(-c3ccco3)nc2c1 |  | inactive |
| COc1ccc(Cc2nc(-c3cccs3)no2)cc1 |  | inconclusive: 12.3% |
| Cc1sc2ncnc(NCC(c3ccco3)N3CCCC3)c2c1C (configuration not stated) |  | inconclusive: -25.6% |
| O=C(COC(=O)C(O)c1ccccc1)NC12CC3CC(CC(C3)C1)C2 (configuration not stated) |  | inactive |
| O=C(COc1ccccc1[N+](=O)[O-])N1CCC(Cc2ccccc2)CC1 | inconclusive: 15.8 µM [falling, single point] |  |
| O=C(Oc1cccc2cccnc12)c1ccc(Br)o1 |  | inactive |
| O=C(CCN1C(=O)c2ccccc2S1(=O)=O)Nc1ccc(C(=O)O)cc1 | inconclusive: 35.5 µM [falling, single point] |  |
| CCC(C)(C)c1nnc(NC(=O)c2cccc([N+](=O)[O-])c2)s1 |  | inconclusive: 0.59% |
| Cc1ccccc1NC(=O)C1Cc2ccccc2CN1C(=O)c1ccco1 (configuration not stated) | inconclusive: 10 µM [falling, partial curve, poor fit] |  |
| CCC(Sc1nc2n[nH]c(C)c2c(=N)n1-c1ccccc1Cl)C(=O)N(CC)CC (configuration not stated) | inconclusive: 1.58 µM [falling, partial curve, poor fit] |  |
| O=C(COC(=O)CNC(=O)c1ccccc1)Nc1ccc(Cl)cn1 |  | inconclusive: -0.679% |
| CCOc1ccccc1C(=O)Nc1cccc(-c2ccc(N3CCOCC3)nn2)c1 |  | inconclusive: 13.7% |
| COc1ccccc1N1CCN(C(=O)Oc2ccccc2)CC1 |  | inconclusive: -0.229% |
| CC(C)OCC(O)CSc1ccccn1 (configuration not stated) |  | inconclusive: 7.04% |
| Cc1ccc(/C=N/NC(=O)c2ccncc2)s1 | inconclusive: 35.5 µM [falling, single point] |  |
| COc1ccc(Nc2oc(COc3ccc(Cl)cc3)nc2C#N)cc1 |  | inactive |
| Cc1ccc2cc(CCNC(=O)c3ccco3)c(=O)[nH]c2c1 | inconclusive: 16.4 µM [falling, single point] |  |
| Cn1c(O)c(N=Nc2nc(-c3ccccc3)cs2)c2ccccc21 | inconclusive: 0.82 µM [falling, full curve] |  |
| Cc1ccnc(N2C(=O)c3ccc([N+](=O)[O-])cc3C2=O)c1 |  | inactive |
| CC1=NN(c2ccccc2)C(=O)C1C=Nc1ccccc1O (configuration not stated) | inconclusive: 35.5 µM [falling, single point] |  |
| CC(C)Cc1ccc(S(=O)(=O)Nc2cccnc2)cc1 | inconclusive: 11.2 µM [rising, partial curve, poor fit] |  |

Shown bar-delimited: four of the compounds above.
Compound | Potency | activity change, negative = inhibition
O=C(COc1ccccc1[N+](=O)[O-])N1CCC(Cc2ccccc2)CC1 | inconclusive: 15.8 µM [falling, single point] | 
CCC(C)(C)c1nnc(NC(=O)c2cccc([N+](=O)[O-])c2)s1 |  | inconclusive: 0.59%
Cc1ccccc1NC(=O)C1Cc2ccccc2CN1C(=O)c1ccco1 (configuration not stated) | inconclusive: 10 µM [falling, partial curve, poor fit] | 
Cc1ccc2cc(CCNC(=O)c3ccco3)c(=O)[nH]c2c1 | inconclusive: 16.4 µM [falling, single point] | 
